This assay can be described thus: qHTS Assay for Modulators of Lamin A Splicing. To be noted: HeLa LMNA splicing GFP/RFP minigene ratio, 48 h. Put shortly:
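Read-out is the ratio of GFP to DsRed2 object intensity, acquired by 488 nm laser-scanning cytometry on HeLa lamin A-EGFP minigene reporter cells. Compound incubation 48 hrs at 37 °C in Opti-MEM with 2% FBS; DMSO 0.5% final.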
(Quantitative high-throughput screening tests each substance at several concentrations.)

[1] abbreviates: measured here: GFP splicing reporter channel.
Setting [2] is: measured here: RFP viability control channel.

Some of the results follow. Further columns of the screen follow, without active or inactive calls. Compounds called inactive in the main read-out are mostly missing here. Potencies come from curve fits of mixed quality, noted in brackets.

As a reminder, the AC50 is the concentration at which the activity in the assay is half-maximal.

As for `COc1ccc(-c2csc(Cc3nnc4n3CCCCC4)n2)cc1OC`, under setting [1], the AC50 is 15.8 µM [rising, single point]. Take `COc1ccc2[nH]c(N=Nc3ccccc3C)c(O)c2c1`: the AC50 reads like this: under setting [1], 3.16 µM [rising, single point]; under setting [2], 3.55 µM [rising, single point]. As to `Cc1onc(-c2ccccc2Cl)c1C(=O)N1CCN(C(=O)c2ccco2)CC1`, the AC50 is 6.31 µM [rising, single point] under setting [1] and 5.62 µM [rising, single point] under setting [2]. `COc1ccc2[nH]cc(CCNc3cc(-c4ccc5c(c4)OCO5)ncn3)c2c1`: the AC50 under setting [1] was 11.2 µM [falling, partial curve, poor fit] and the AC50 under setting [2] is 12.6 µM [falling, single point].

As for `CCCCCOc1ccc(C2C(C(C)=O)=C(C)Nc3ncnn32)cc1OC` (stereo not drawn), the AC50 under setting [2] was 12.6 µM [rising, single point].

As for `CC(=O)Cc1nsc(NC(=O)c2ccc(-c3ccc(F)cc3)o2)n1`, the AC50 under setting [1] is 10 µM [falling, partial curve, poor fit].

For `Cc1ccc(/C=C/C(=O)N2CC(C)CC(C)C2)o1` (stereo not drawn), the AC50 under setting [2] is 11.2 µM [falling, single point].

For `Cc1ccc(-c2cnc(SCC(=O)N3CCCc4ccccc43)n2C)cc1`, the AC50 is, setting by setting: under setting [1], 31.6 µM [rising, single point]; under setting [2], 35.5 µM [rising, single point]. As to `O=C(NCCC1=CCCCC1)C1CCC(CNc2nc(=S)[nH]c3ccccc23)CC1` (stereo not drawn), the concentration at half-maximal activity (AC50) under setting [1] is 35.5 µM [falling, single point] and the AC50 under setting [2] is 35.5 µM [falling, single point]. Take `Cc1ccc(-n2c(=S)[nH]c3c(oc4ccccc43)c2=O)cc1C`: the AC50 under setting [2] is 14.1 µM [rising, partial curve, poor fit]. The same measure, in the same setting: then `CC(C)CCNC(=O)c1ccc(Cl)c(N)c1`, with 39.8 µM [rising, partial curve, poor fit]. On to `COc1ccc(CNC(=O)CSc2nnc(C)n2-c2ccc(F)cc2)cc1`, for which the AC50 is 3.98 µM [rising, single point] under setting [1] and 14.1 µM [rising, single point] under setting [2]. On to `COc1ccc(-c2coc3cc(OC)cc(O)c3c2=O)cc1`, for which the AC50 under setting [1] is 5.62 µM [rising, partial curve, poor fit]. As to `Cc1ccc[n+](CC(=O)c2ccc(NC(=O)c3ccccc3)cc2)c1`, the AC50 under setting [2] was 20 µM [rising, single point]. Same read-out and setting: with `COc1ccc(NC(=S)NCCSc2ccc(Cl)cc2)c(OC)c1` the figure was 20 µM [rising, single point]; with `Cc1nc(NC(=O)c2ccccc2)sc1-c1csc(N)n1`, 0.224 µM [falling, full curve, poor fit]. For `COc1ccc(CNC(=O)Cn2c(=O)c3cccn3c3ccccc32)cc1`, the AC50 under setting [1] is 3.98 µM [falling, full curve, poor fit].

As to `CCc1[nH]nc2c1C(c1ccc(Br)s1)C(C#N)=C(N)O2` (stereo not drawn), the AC50 under setting [1] is 28.2 µM [falling, single point] and the half-maximal activity concentration (AC50) under setting [2] is 14.1 µM [falling, partial curve].

With `Cc1ccc(SC(C)C(=O)Nc2ccncc2)cc1` (stereo not drawn), under setting [2], the half-maximal activity concentration (AC50) was 17.8 µM [rising, partial curve]. In the case of `CCOC(=O)c1c(NC(=O)CNC2CCCc3ccccc32)sc(C(N)=O)c1C` (stereo not drawn), the AC50 was 22.4 µM [falling, partial curve] under setting [1] and 17.8 µM [falling, partial curve, poor fit] under setting [2]. For `Cc1ccc(NS(=O)(=O)c2cccc(C(=O)N/N=C/c3c(C)nn(-c4ccccc4)c3N3CCCC3)c2)c(C)c1`, under setting [2], the half-maximal activity concentration (AC50) was 35.5 µM [rising, single point]. The same measure, in the same setting: then `CC(C)Cn1c(=O)c2c(nc3n2CCCN3CCc2ccccc2)n(C)c1=O`, with 15.8 µM [rising, partial curve].

On to `O=C(NCc1ccccc1)NCc1cccs1`, for which the AC50 by setting is: under setting [1], 5.01 µM [rising, partial curve, poor fit]; under setting [2], 2.51 µM [rising, partial curve, poor fit]. Regarding `CCOC(=O)C1=C(C)NC(=S)N(C(C)=O)C1c1ccc(Cl)cc1` (stereo not drawn), the AC50 under setting [2] is 35.5 µM [rising, single point]. Still for that read-out and setting: then `COc1ccc2c(Cl)c(-c3nnc(SCC(=O)c4ccccc4)n3C)sc2c1`, with 14.1 µM [rising, single point]. Consider `Cc1cccc(C2NC(c3cccc(C)c3)C([N+](=O)[O-])C(C)(C)C2[N+](=O)[O-])c1` (stereo not drawn), for which the AC50 is, setting by setting: under setting [1], 6.31 µM [rising, partial curve]; under setting [2], 6.31 µM [rising, partial curve]. `CCc1cccc(C)c1NC(=O)CO/N=C(\C)c1cc2ccccc2o1`: the half-maximal activity concentration (AC50) under setting [2] was 22.4 µM [rising, partial curve]. On the same count and under the same terms, then `Cc1ccc(S(=O)(=O)N2CCN(C(=O)c3nn(C(C)C)c(=O)c4ccccc34)CC2)cc1C`, with 11.2 µM [rising, single point].

For the compound `Cc1ccc2[nH]c3c(N4CCCCCC4)ncnc3c2c1`, the AC50 by setting is: under setting [1], 2.51 µM [rising, full curve, poor fit]; under setting [2], 7.94 µM [rising, single point]. On to `CN(C)CCNC(=O)c1cccc(NS(=O)(=O)c2ccc(Cl)c(Cl)c2)c1`, for which the AC50 under setting [2] was 5.01 µM [falling, partial curve, poor fit]. Same read-out and setting: with `N#Cc1nc(N)nc(N(c2ccccc2)c2ccccc2)n1` the figure was 35.5 µM [rising, single point]. Take `Cc1ccc(C)n1-c1sc2c(c1C(=O)O)CCCC2`: the half-maximal activity concentration (AC50) under setting [2] is 7.94 µM [falling, partial curve, poor fit]. `COc1ccc(-n2nc3cc(C)c(N)c(Br)c3n2)cc1`: the AC50 under setting [1] is 11.2 µM [rising, partial curve].

As to `Cc1sc(NC(=O)C2CC=CCC2C(=O)O)c(C(=O)OC(C)C)c1C` (stereo not drawn), the AC50 under setting [2] was 22.4 µM [rising, single point].

Consider `CC(C)(C)CC(=O)NC(=S)NCc1ccccc1`, for which the half-maximal activity concentration (AC50) was 35.5 µM [rising, partial curve, poor fit] under setting [1] and 7.94 µM [rising, full curve, poor fit] under setting [2]. On to `CCc1cc2c3c(c1)C(C)CC(C)(C)N3C(=O)C2=O` (stereo not drawn), for which the AC50 under setting [2] was 35.5 µM [rising, single point]. Same read-out and setting: with `COc1ccccc1C/C(N)=N/OC(=O)c1ccc2c(c1)OCO2` the figure was 0.00891 µM [falling, full curve, poor fit]; with `Cc1cc(C)cc(NC(=O)CSc2nc3c([nH]c4ccccc43)c(=O)n2-c2ccc(F)cc2)c1`, 2.82 µM [falling, full curve]. The same measure, in the same setting: with `O=C(CSc1nnc(-c2ccccc2)c2ccccc12)NCC1CCCO1` (stereo not drawn) the figure was 20 µM [rising, single point]. On to `COc1ccccc1OCC(=O)N(Cc1nc(-c2ccccc2)no1)C1CCCCC1`, for which the AC50 under setting [1] is 12.6 µM [rising, single point] and the AC50 under setting [2] was 12.6 µM [rising, partial curve]. Consider `Cc1cc(C)cc(NS(=O)(=O)c2ccc(NC(=S)NC(=O)c3ccc(Br)o3)cc2)c1`, for which the AC50 under setting [2] was 31.6 µM [rising, single point]. Consider `Clc1ccc(Nc2nc(NCCN3CCOCC3)nc(N3CCOCC3)n2)cc1`, for which the AC50 runs as follows: under setting [1], 11.2 µM [rising, single point]; under setting [2], 11.2 µM [rising, partial curve].

Turning to `COc1cc(/C=C/C(=O)N2CCCc3ccccc32)cc(OC)c1OC`, the AC50 under setting [2] is 15.8 µM [rising, partial curve]. Consider `Cc1ccccc1NS(=O)(=O)c1cc(C(=O)NCCC2=CCCCC2)ccc1Cl`, for which the AC50 is 5.62 µM [rising, full curve, poor fit] under setting [1] and 11.2 µM [rising, partial curve] under setting [2]. Consider `CCc1cccc(C)c1NC(=O)c1ccc(CN2CCc3ccccc3C2)cc1`, for which the AC50 by setting is: under setting [1], 7.08 µM [rising, partial curve]; under setting [2], 15.8 µM [rising, partial curve]. Turning to `CS(=O)(=O)n1nc(C(=O)N2CCOCC2)nc1N`, the concentration at half-maximal activity (AC50) runs as follows: under setting [1], 11.2 µM [falling, partial curve, poor fit]; under setting [2], 8.91 µM [falling, partial curve].

As for `CCOC(=O)c1c(NC(=O)CSc2ncnc3ccccc23)sc(C)c1C`, the AC50 runs as follows: under setting [1], 2.24 µM [rising, full curve]; under setting [2], 1.26 µM [rising, full curve]. For `CC(C)CC(=O)NC(=S)NNC(=O)c1ccc([N+](=O)[O-])cc1`, under setting [2], the AC50 was 31.6 µM [rising, single point]. Take `COc1ccc(CNC(=O)CSc2n[nH]c(-c3ccc(F)cc3)n2)cc1`: the AC50 under setting [1] is 0.708 µM [rising, single point].

As to `COCc1c(C(=O)N2CCN(c3ccc(C(F)(F)F)cn3)CC2)oc2ccccc12`, the AC50 under setting [2] is 31.6 µM [rising, single point]. Still for that read-out and setting: then `COc1ccc(C(=O)C(c2ccccc2)N2CCOCC2)cc1` (stereo not drawn), with 6.31 µM [rising, single point]. `O=C1CC(c2ccco2)Cc2nc(N3CCc4ccccc4C3)ncc21` (stereo not drawn): the AC50 reads like this: under setting [1], 12.6 µM [rising, single point]; under setting [2], 11.2 µM [rising, single point]. In the case of `Fc1ccc(Nc2nc(SCc3cccc(Cl)c3)nc3ccccc23)cc1`, the AC50 under setting [1] is 35.5 µM [falling, single point] and the AC50 under setting [2] was 25.1 µM [falling, single point]. Consider `O=C(Cn1cc2c(n1)CCCCC2)N1CCc2ccccc21`, for which the AC50 under setting [2] is 12.6 µM [rising, single point]. Turning to `Cc1ccccc1CSCC(=O)NC(=O)NC(C)(C)C`, the AC50 is 14.1 µM [rising, single point] under setting [1] and 12.6 µM [rising, single point] under setting [2]. `CCc1c(C)nc2ncnn2c1NCCc1ccc(OC)cc1`: the AC50 is 14.1 µM [falling, partial curve] under setting [1] and 17.8 µM [falling, single point] under setting [2].
